# In publication PMC7578061, “Potent inhibition of tumour cell proliferation and immunoregulatory function by mitochondria-targeted atovaquone” (Scientific Reports, 2020):
# Test system: MiaPaCa-2 and A549 cells
# Test: Cellular uptake by LC-MS/MS
# Format: cell-based, human
# Settings: Mito10-ATO 0.1 and 1 µM, ATO 1-10 µM; 1, 2, 4 and 24 h
row,Structure (SMILES),Cellular uptake (LC-MS/MS)
1,"O=C1C(O)=C([C@H]2CC[C@H](c3ccc(Cl)cc3)CC2)C(=O)c2ccccc21 [ATO, Atovaquone]",considerably lower and did not accumulate
2,O=C1C(OCCCCCCCCCC[P+](c2ccccc2)(c2ccccc2)c2ccccc2)=C([C@H]2CC[C@H](c3ccc(Cl)cc3)CC2)C(=O)c2ccccc21 [Mito10-ATO],accumulated inside the cells with time
